PubChem BioAssay AID256 (DTP/NCI, 2004)
The list does not hold the whole screen: it is rich in T/C values a quarter to a half above the control, in often repeated tests (any T/C) and in doses without a T/C. Further doses and runs are listed elsewhere. T/C: endpoint of the treated group in % of that of the vehicle group. Some doses have a count of surviving animals in place of a T/C: the source holds a T/C of zero for them, seemingly a mark for toxic or unscored doses. Some survivor counts are full or nearly so, which does not show that the dose was tolerated: the source hardly ever lists a survival T/C far under the control, and the zero likely stands for such cases as well. Survivors were counted at the toxicity check, usually on the fifth day, unless a day is given; later deaths do not show. Schedule codes are those of the source, read here as Q, the interval in days (D) or hours (H), X, the number of doses. Some molecules as drawn cover several salts, stereoisomers or complexes of the source; a dose is that of the sample tested. Counts like (3×) stand for listed records that agree. Some entries were tested several times; the values are given in rising order. Where survival is the endpoint, this PubChem deposit counts one and a half times the control or more as active, and values a quarter to a half above the control carry no call in these data; other NCI protocols may use other cut-offs.

System: CD2F1 mice, L1210 leukemia ip, survival T/C
Test: NCI In Vivo Anticancer Drug Screen. Data for tumor model L1210 Leukemia (intraperitoneal) in CD2F1 (CDF1) mice
Settings: higher T/C = longer survival
How it was run: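 Antitumor effect is scored in animals hosting a serially transplanted tumor. Values compare compound-dosed animals against vehicle-only controls as a simple quotient.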

[1] = T/C endpoint: mean survival time, dose: 200.0 mg/kg/injection, schedule: Q01DX009 (ip), vehicle: saline with Tween-80
[2] = T/C endpoint: mean survival time, dose: 400.0 mg/kg/injection, schedule: Q01DX001 (ip), vehicle: saline with Tween-80
[3] = T/C endpoint: mean survival time, dose: 400.0 mg/kg/injection, schedule: Q04DX003 (ip), vehicle: saline with Tween-80
[4] = T/C endpoint: mean survival time, dose: 50.0 mg/kg/injection, schedule: Q01DX009 (ip), vehicle: saline with Tween-80
[5] = T/C endpoint: mean survival time, dose: 400.0 mg/kg/injection, schedule: Q01DX009 (ip), vehicle: saline with Tween-80

`CCC1=C[C@H]2CN(CCc3c([nH]c4ccccc34)[C@@](C(=O)OC)(c3cc4c(cc3OC)N(C)[C@H]3[C@@](O)(C(=O)NC)[C@H](OC(C)=O)[C@]5(CC)C=CCN6CC[C@]43[C@@H]65)C2)C1` was tested. Which T/C (T/C endpoint: mean survival time, dose: 0.12 mg/kg/injection, schedule: Q01DX009 (ip), vehicle: water) did it give?
Its T/C is 132 % of control.

What about the T/C (T/C endpoint: mean survival time, dose: 0.25 mg/kg/injection, schedule: Q01DX009 (ip), vehicle: water) of the same compound?
Its T/C is 125 % of control.

And the T/C (T/C endpoint: mean survival time, dose: 0.5 mg/kg/injection, schedule: Q01DX009 (ip), vehicle: water)?
Its T/C is 127 % of control.

What about the survivor count (T/C endpoint: mean survival time, dose: 1.0 mg/kg/injection, schedule: Q01DX009 (ip), vehicle: water) of the same compound?
Its survivor count is 6 of 6.

What about the survivor count (T/C endpoint: mean survival time, dose: 2.0 mg/kg/injection, schedule: Q01DX009 (ip), vehicle: water) of the same compound?
The survivor count was 5 of 6.

What does the source list for `Nc1nc(Br)nc2c1ncn2C1OC(CO)C(O)C1O` (stereo not given)?
survivor count (T/C endpoint: mean survival time, dose: 150.0 mg/kg/injection, schedule: Q01DX001 (ip), vehicle: saline): 1 of 6; survivor count (T/C endpoint: mean survival time, dose: 300.0 mg/kg/injection, schedule: Q01DX001 (ip), vehicle: saline): 0 of 6

For `CCOC(=O)CN1C(=O)NC(c2ccccc2)(c2ccccc2)C1=O`, which survivor count [1] is on record?
The survivor count was 5 of 6.

For `CCc1ccc(C)[nH]c1=S`, which survivor count [2] is on record?
Its survivor count is 3 of 6.

How did the survivor count [1] turn out when `CCCC(=O)OCc1ccc(Cl)c(Cl)c1` was run?
Its survivor count is 3 of 6.

And the survivor count [3]?
Its survivor count is 2 of 6.

What does the source list for `CC(Cl)CN(CC(C)Cl)c1ccc(S(=O)(=O)Nc2ncccn2)cc1` (stereo not given)?
T/C (T/C endpoint: mean survival time, dose: 53.0 mg/kg/injection, schedule: Q01DX009 (ip), vehicle: other): 125 % of control; T/C (T/C endpoint: mean survival time, dose: 80.0 mg/kg/injection, schedule: Q01DX009 (ip), vehicle: other): 125 % of control; survivor count (T/C endpoint: mean survival time, dose: 120.0 mg/kg/injection, schedule: Q01DX009 (ip), vehicle: other): 3 of 6; survivor count (T/C endpoint: mean survival time, dose: 180.0 mg/kg/injection, schedule: Q01DX009 (ip), vehicle: other): 2 of 6

Which survivor count [4] does the source give for `CC(C)(C)C1CCC(=O)C1` (stereo not given) here?
The survivor count was 3 of 3.

With `CC(C)(C)C1=CC(=O)C(C(C)(C)C)=CC1=O` as the compound, how does the survivor count [2] read?
Its survivor count is 0 of 6.

`CCCCCCCCCCCC(=O)OCC1OC2C(Oc3nc(=N)ccn32)C1OC(=O)CCCCCCCCCCC` (stereo not given) was tested. Which survivor count (T/C endpoint: mean survival time, dose: 200.0 mg/kg/injection, schedule: Q01DX009 (ip), vehicle: water) did it give?
Its survivor count is 6 of 6.

Which survivor count (T/C endpoint: mean survival time, dose: 200.0 mg/kg/injection, schedule: Q04DX003 (ip), vehicle: water) does the source give for `[Cl][Pt][Cl].[NH-]C(CO)C(=O)O` (stereo not given) here?
Its survivor count is 0 of 6.

And the survivor count (T/C endpoint: median survival time, dose: 50.0 mg/kg/injection, schedule: Q01DX009 (ip), vehicle: water)?
Its survivor count is 3 of 6.

And the survivor count (T/C endpoint: median survival time, dose: 100.0 mg/kg/injection, schedule: Q01DX009 (ip), vehicle: water)?
Its survivor count is 0 of 6.

With `O=[N+]([O-])c1cc2c(c([N+](=O)[O-])c1)OCOC2` as the compound, how does the survivor count [5] read?
The survivor count was 0 of 6.

For `CCCCOC1CC2c3ccccc3C1c1cccc[n+]12` (stereo not given), which survivor count (T/C endpoint: mean survival time, dose: 100.0 mg/kg/injection, schedule: Q04DX003 (ip), vehicle: saline) is on record?
Its survivor count is 0 of 6 and 5 of 6.

And the survivor count (T/C endpoint: mean survival time, dose: 200.0 mg/kg/injection, schedule: Q04DX003 (ip), vehicle: saline)?
Its survivor count is 0 of 6 (2×).

What about the survivor count (T/C endpoint: mean survival time, dose: 400.0 mg/kg/injection, schedule: Q04DX003 (ip), vehicle: saline) of the same compound?
Its survivor count is 0 of 6 (2×).

With `C=C(Cl)CNC(N)=S` as the compound, how does the survivor count [3] read?
The survivor count was 1 of 6.

What does the source list for `COc1ccc([I+]c2ccccc2)cc1`?
survivor count (T/C endpoint: mean survival time, dose: 12.5 mg/kg/injection, schedule: Q01DX009 (ip), vehicle: saline with Tween-80): 1 of 6; survivor count (T/C endpoint: mean survival time, dose: 25.0 mg/kg/injection, schedule: Q01DX009 (ip), vehicle: saline with Tween-80): 1 of 6; survivor count [4]: 4 of 6; survivor count (T/C endpoint: mean survival time, dose: 100.0 mg/kg/injection, schedule: Q01DX009 (ip), vehicle: saline with Tween-80): 0 of 6; survivor count [1]: 0 of 6; survivor count [5]: 0 of 6

Which results are given for `CC12CCC3C(CCC4CC(OC(=O)Cc5ccc(N(CCCl)CCCl)cc5)CCC43C)C1CCC(=O)N2` (stereo not given)?
T/C (T/C endpoint: mean survival time, dose: 24.0 mg/kg/injection, schedule: Q01DX009 (ip), vehicle: saline with Tween-80): 140 % of control; T/C (T/C endpoint: median survival time, dose: 6.0 mg/kg/injection, schedule: Q01DX009 (ip), vehicle: saline with Tween-80): 125 % of control; T/C (T/C endpoint: median survival time, dose: 12.0 mg/kg/injection, schedule: Q01DX009 (ip), vehicle: saline with Tween-80): 125 and 130 % of control
